No constants are given. Whether binding was seen depends on the method and setting. In cells and extracts the contact can be indirect. Some binding calls cover weakened binding; strength is not graded here.
Biological target: SALL4 (human (endogenous in M010817)) (UniProt Q9UJQ4)
Test: co-IP; SALL4 antibody (abcam ab29112) or IgG coupled to Dynabeads M-270 Epoxy; lysate of M010817 cells in Extraction buffer; 30 min at 4 °C; six washes; eluate analysed by western blot for SALL4 and HDAC2

By UniProt entry, the sequences of proteins in these tests, tags left out.
UniProt Q9UJQ4: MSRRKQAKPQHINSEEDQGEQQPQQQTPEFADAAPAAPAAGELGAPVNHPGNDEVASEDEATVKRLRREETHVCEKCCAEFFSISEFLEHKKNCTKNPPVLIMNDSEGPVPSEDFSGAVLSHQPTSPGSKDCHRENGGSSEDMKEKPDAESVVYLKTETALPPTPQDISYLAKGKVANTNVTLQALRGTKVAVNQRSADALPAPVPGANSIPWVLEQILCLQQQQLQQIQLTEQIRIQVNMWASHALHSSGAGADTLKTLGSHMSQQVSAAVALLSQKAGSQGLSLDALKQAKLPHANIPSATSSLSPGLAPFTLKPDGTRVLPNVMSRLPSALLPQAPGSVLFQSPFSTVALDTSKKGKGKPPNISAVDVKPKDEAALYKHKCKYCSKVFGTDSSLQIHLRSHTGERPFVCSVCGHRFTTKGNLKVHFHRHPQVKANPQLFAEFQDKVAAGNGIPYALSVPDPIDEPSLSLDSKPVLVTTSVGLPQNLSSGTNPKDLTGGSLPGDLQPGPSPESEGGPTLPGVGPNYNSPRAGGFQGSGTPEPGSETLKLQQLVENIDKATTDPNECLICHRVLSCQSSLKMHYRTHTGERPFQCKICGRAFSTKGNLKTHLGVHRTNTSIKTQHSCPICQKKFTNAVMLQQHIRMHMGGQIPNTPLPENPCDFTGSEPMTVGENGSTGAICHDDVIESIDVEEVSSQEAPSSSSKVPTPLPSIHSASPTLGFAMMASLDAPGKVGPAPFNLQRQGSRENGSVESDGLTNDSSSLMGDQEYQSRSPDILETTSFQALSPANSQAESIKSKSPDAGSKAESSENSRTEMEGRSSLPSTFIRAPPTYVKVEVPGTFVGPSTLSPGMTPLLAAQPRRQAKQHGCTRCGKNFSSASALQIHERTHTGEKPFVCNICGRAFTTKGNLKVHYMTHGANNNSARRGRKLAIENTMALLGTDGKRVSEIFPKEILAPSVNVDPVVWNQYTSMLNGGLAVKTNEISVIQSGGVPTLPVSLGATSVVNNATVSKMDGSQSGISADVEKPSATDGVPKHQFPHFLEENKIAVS
UniProt Q92769: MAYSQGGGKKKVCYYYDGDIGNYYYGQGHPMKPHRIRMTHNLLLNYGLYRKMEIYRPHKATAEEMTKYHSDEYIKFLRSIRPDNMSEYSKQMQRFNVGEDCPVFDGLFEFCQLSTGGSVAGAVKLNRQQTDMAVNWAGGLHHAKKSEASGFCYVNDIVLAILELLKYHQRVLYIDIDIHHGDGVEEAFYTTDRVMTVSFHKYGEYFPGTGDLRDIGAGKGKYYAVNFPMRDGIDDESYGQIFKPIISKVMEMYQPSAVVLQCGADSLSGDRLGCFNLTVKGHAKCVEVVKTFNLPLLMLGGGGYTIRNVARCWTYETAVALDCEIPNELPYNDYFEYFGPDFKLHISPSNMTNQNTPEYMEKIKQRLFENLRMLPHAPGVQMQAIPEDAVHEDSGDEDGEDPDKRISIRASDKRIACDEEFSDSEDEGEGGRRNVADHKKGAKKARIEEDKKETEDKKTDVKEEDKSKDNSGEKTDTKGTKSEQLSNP

- binding: binds
Substance: histone deacetylase (HDAC) 2 (from UniProt Q92769 1-488) (enzyme)
